In publication PMC8782398:
These are yes or no findings as the source states them, for the method shown.

Sequences of proteins named here, by UniProt entry; tags and fusion partners are left off. A change or cut given only in a name is not applied to a line headed by its entry.
UniProt P35372: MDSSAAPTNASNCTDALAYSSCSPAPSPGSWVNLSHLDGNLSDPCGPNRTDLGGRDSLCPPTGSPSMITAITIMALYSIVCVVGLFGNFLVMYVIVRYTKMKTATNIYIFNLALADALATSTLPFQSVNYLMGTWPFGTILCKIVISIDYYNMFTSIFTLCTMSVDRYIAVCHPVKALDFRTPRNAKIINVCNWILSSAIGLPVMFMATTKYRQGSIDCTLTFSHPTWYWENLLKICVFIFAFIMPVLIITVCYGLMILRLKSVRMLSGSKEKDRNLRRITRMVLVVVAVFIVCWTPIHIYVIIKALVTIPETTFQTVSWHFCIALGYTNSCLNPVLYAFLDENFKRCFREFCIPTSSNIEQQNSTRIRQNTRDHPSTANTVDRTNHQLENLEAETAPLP
UniProt Q13519: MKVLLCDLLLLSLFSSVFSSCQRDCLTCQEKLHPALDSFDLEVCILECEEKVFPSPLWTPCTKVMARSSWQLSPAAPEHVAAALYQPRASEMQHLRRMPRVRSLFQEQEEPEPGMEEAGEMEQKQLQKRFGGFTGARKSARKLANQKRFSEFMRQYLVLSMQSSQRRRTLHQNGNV

Target: human MOP receptor in HEK293 cells (human) (UniProt P35372)
Test: radioligand binding; only the binder purified

binding: no binding
Substance: Nociceptin/Orphanin FQ (from UniProt Q13519 130-146) (peptide)
